Reference: PMC7383231, “Pseudo-RNA-Binding Domains Mediate RNA Structure Specificity in Upstream of N-Ras”
No constants are given. Whether binding was seen depends on the method and setting. In cells and extracts the contact can be indirect. A yes stands for co-enrichment or nearness to the bait. Other partners may have been found. Tags and fused reporters may be left off the sequences shown.

Chains of the proteins cited; added tags and fusions are not shown. Lines headed by an entry give the natural chain unless they say otherwise; changes in a name come on top.
UniProt Q32KD4: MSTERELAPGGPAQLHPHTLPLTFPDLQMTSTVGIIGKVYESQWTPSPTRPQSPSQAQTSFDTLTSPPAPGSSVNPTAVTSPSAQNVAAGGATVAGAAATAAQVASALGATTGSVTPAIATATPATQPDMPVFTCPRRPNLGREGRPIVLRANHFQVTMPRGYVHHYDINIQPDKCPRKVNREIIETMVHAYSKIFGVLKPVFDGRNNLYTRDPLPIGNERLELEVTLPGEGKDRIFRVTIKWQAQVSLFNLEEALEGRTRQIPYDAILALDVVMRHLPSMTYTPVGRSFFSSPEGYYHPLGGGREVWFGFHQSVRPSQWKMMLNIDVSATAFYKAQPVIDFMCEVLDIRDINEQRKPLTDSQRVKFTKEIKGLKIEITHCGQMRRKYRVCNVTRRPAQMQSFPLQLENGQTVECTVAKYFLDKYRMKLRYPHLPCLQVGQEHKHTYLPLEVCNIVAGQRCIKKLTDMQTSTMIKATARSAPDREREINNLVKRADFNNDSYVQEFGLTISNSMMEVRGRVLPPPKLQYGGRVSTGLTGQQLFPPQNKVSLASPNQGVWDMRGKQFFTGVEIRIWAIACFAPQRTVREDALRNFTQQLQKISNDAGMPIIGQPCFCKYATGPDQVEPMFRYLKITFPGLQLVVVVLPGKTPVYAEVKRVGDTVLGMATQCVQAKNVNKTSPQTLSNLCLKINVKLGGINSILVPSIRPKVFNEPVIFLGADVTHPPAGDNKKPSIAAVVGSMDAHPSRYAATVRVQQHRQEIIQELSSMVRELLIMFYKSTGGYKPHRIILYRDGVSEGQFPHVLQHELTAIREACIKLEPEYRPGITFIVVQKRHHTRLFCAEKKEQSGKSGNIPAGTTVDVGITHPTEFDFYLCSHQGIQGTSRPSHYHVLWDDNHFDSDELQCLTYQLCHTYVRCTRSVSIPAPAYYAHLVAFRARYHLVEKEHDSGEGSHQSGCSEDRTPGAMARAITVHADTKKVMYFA
UniProt Q9V3E7: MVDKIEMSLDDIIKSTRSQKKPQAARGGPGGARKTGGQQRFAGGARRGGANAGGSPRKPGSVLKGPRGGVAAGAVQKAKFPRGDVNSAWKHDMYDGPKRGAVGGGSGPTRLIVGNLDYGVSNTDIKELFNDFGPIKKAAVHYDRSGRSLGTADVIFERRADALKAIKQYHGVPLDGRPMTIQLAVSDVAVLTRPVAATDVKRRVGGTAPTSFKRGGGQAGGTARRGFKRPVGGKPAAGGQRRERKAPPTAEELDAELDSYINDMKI
UniProt P19109: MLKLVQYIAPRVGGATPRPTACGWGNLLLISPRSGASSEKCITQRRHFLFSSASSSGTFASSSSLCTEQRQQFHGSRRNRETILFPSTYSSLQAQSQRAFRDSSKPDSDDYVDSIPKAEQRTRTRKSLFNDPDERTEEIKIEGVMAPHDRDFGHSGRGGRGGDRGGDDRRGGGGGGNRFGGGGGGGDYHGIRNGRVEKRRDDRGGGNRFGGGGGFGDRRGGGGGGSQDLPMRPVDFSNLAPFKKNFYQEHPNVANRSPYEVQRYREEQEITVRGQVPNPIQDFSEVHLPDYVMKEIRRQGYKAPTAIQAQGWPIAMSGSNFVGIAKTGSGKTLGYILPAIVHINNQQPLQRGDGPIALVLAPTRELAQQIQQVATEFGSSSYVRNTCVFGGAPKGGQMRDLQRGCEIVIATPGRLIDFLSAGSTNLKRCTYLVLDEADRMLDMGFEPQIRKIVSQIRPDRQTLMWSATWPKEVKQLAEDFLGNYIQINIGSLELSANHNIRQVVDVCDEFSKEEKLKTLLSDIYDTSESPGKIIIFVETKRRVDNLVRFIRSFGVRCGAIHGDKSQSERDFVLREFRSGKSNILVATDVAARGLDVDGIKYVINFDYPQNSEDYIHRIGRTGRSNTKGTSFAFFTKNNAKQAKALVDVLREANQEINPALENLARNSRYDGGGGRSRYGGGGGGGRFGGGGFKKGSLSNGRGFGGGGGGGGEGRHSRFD

T1: Drosophila Upstream of N-Ras (Unr), full-length wild type, V5-tagged (Drosophila) (UniProt B7Z0E2)
T1 sequence: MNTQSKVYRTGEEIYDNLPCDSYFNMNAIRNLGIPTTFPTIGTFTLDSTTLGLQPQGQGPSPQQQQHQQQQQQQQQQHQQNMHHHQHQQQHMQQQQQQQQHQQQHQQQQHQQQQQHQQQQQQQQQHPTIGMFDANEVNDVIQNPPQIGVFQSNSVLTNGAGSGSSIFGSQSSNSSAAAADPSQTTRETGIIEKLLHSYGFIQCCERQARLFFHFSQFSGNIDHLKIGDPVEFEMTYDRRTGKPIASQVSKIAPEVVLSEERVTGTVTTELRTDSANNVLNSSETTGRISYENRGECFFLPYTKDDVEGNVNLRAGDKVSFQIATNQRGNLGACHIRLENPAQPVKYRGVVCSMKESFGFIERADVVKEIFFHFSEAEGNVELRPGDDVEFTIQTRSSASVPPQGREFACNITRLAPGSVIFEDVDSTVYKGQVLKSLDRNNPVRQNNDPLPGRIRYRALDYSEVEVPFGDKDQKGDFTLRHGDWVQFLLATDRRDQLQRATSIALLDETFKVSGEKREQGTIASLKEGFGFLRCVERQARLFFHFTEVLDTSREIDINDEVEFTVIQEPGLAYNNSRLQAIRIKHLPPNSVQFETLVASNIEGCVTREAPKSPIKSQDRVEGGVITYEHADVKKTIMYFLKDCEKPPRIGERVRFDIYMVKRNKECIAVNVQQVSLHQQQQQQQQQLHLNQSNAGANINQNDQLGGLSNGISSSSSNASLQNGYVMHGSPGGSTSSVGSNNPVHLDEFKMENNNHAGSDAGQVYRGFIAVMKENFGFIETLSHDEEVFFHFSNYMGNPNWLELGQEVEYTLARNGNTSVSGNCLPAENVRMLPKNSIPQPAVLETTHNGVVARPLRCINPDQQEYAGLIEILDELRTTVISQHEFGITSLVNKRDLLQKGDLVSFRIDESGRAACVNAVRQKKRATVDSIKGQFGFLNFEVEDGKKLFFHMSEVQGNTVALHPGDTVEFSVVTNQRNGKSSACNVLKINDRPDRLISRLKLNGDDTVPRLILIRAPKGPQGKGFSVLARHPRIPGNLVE

B1: Edc3 (protein, UniProt Q9VVI2 1-680)
chain: MGPTDQDWIGCAVSIACDEVLGVFQGLIKQISAEEITIVRAFRNGVPLRKQNAEVVLKCTDIRSIDLIEPAKQDLDGHTAPPPVVNKPTPVKLPHFSNILGKQQQLQLQQQQQQLQLQQQQKQQFQEQEREQDLPSTPRSRANDNGRVAAGGASSSSGPRGNFNSALSDKMHQLKLIETNGSNGTLRTPQTSRASSAQQQPQISTTPNSVAAFFGNMIPPKVEVKLGSYVSNTRESYCSSSGDSGEATGLSLGSSKPIDIVSNGDGFYKQTAASSYGNTNGNVRRNGNANNNGNGTGNGSYTNGNGNGNGKNKRNRVRRESSMRQQQVQLTFGSEADDPLIHEDFDFEGNLALFDKQAIWDDIESTTQKPDVVRHIVNNHHHKPEQKYRHDENILASKPLQLRQIESMFGGSQDFVTDDGLIIPTIPAYVRNKIEISADKAGLSLQRQIDILARGASDLAITLLGGARRLTPANNHQWPKIAIICDGGKNMRTINIGAATGRQLASHGLTVLLYVEQAKLLEQNSSSPEISLFKATDNVIVHSVDALPTPDLVILSTNTANLSDAIRKWLSVNRASVLAIDPPPCGINEVAIKYSILPILPLNGISTATTSSSSSAAATPTPIASTSAAASATKSAASTNNCGKLYLCNLGIPDKFYRDCGIKYKSPYGHKYVIPIHSKD
B2: Hrb27c (Hrp48) (protein, UniProt P48809 1-421)
chain: MEEDERGKLFVGGLSWETTQENLSRYFCRFGDIIDCVVMKNNESGRSRGFGFVTFADPTNVNHVLQNGPHTLDGRTIDPKPCNPRTLQKPKKGGGYKVFLGGLPSNVTETDLRTFFNRYGKVTEVVIMYDQEKKKSRGFGFLSFEEESSVEHVTNERYINLNGKQVEIKKAEPRDGSGGQNSNNSTVGGAYGKLGNECSHWGPHHAPINMMQGQNGQMGGPPLNMPIGAPNMMPGYQGWGTSPQQQQYGYGNSGPGSYQGWGAPPGPQGPPPQWSNYAGPQQTQGYGGYDMYNSTSTGAPSGPSGGGSWNSWNMPPNSAGPTGAPGAGAGTATDMYSRAQAWATGGPSTTGPVGGMPRTGPGNSASKSGSEYDYGGYGSGYDYDYSNYVKQEGASNYGAGPRSAYGNDSSTQPPYATSQAV
B3: Nito (protein, UniProt Q7KMJ6 1-793)
chain: MSSHRDGAGADRITIKIHNMKRSASRSPGPASRSSLSRNSRSMGRGYDNGSGVPGDSPERLSPERMRRRLDRSPSRYGSPHREPYMRGPPPAERPAGYKVLCVSALPPKAPDDFIEETLYREYKKFGDFSVRLAHDLDERVAYVCFRTPEDAREAKHHKPRLIIYDKMAIVEPVYKSTTRPEYRPRGHSMSPPDYERYHYSRSPMGQGVPLDHRRPPIDPYDRYGPPHMHPHAVHPRDYRPLHHDYPHPPRGPPLHRGGHPHHLHGHAPPHQYAPMRPLAPRPHAPYEKPESKKDKFPNYLHHVQPEDDPLSTRTLFAGNLEVTIADDELRRIFGKYGVVDDIDIKRPPPGTGNAFAFVRYQNLDMAHRAKIELSGQYIGKFQCKIGYGKVTPATRMWIGGLGAWTSVTQLEREFDRFGAIKKIEYQKGEPYAYIQYETVEAATAAVKEMRGFPLGGPERRLRTDFAELPGATPAAPFKSSKPPYDESALEYRRPEYDPYYEESAAYAPRGGYSPYPPRGGYRGRGGYRGRGRGMYHYHNDVHRPPHPGSLAGSSSSVPPPGGVEDEWRRPPGESYDRGARSSSREPGVERSRSRSPLKRARSPGSDSDTSTRRNDALASASTVPDVARKCSTVWTGALILKSSLFPAKFHLTDGDTDIVESLMRDEEGKHNLRITQRLRLDPPKLDDVQKRIASSSSHAIFMGLAGSTNDTNCDDASVQTRPLRNLVSYLKQKEAAGVISLLNKETEATGVLYAFPPCDFSTELLKRTCHSLTEEGLKEDHLVIVVVRGGTA
B4: Upf1 (protein, UniProt Q9VYS3 1-1180)
chain: MSVDTYAPSSALSFLDMDDNELLPGADTQPTQYDYRDFTMPSTSQSQTQNDQLEIAQRCSAGDSHPRLASITNDLADLQFEEEDDEPGSSYVKELPPHACKYCGIHDPATVVMCNNCRKWFCNGRGSTSGSHIINHLVRAKHREVTLHGEGPLGETILECYSCGVRNVFVLGFIPAKADSVVVLLCRQPCAAQNSLKDMNWDQEQWKPLIADRCFLAWLVKQPSEQGQLRARQISAAQINKLEELWKENIEATFQDLEKPGIDSEPAHVLLRYEDGYQYEKTFGPLVRLEAEYDQKLKESATQENIEVRWDVGLNKKTIAYFTLAKTDSDMKLMHGDELRLHYVGELYNPWSEIGHVIKVPDNFGDDVGLELKSSTNAPVKCTSNFTVDFIWKCTSFDRMTRALCKFAIDRNSVSNFIYSRLLGHGRADSNDEVLFRGPQPKLFSAPHLPDLNRSQVYAVKHALQRPLSLIQGPPGTGKTVTSATIVYQLVKLHGGTVLVCAPSNTAVDQLTEKIHRTNLKVVRVCAKSREAIDSPVSFLALHNQIRNMETNSELKKLQQLKDETGELSSADEKRYRNLKRAAENQLLEAADVICCTCVGAGDGRLSRVKFTSILIDESMQSTEPECMVPVVLGAKQLILVGDHCQLGPVVMCKKAARAGLSQSLFERLVVLGIRPFRLEVQYRMHPELSQFPSNFFYEGSLQNGVCAEDRRLKLDFPWPQPERPMFFLVTQGQEEIAGSGTSFLNRTEAANVEKITTRFLKAGIKPEQIGIITPYEGQRAYLVQYMQYQGSLHSRLYQEIEIASVDAFQGREKDIIIMSCVRSNERQGIGFLNDPRRLNVALTRAKFGIIIVGNPKVLAKQQLWNHLLNFYKDRKVLVEGSLNNLKESLIHFQKPKKLVNSMNIGAHFMSTIIADAKEVMVPGSIYDRSGGYGQGRQMVGQSMNGGQYGGSGGGPYGNSPLGYGTPSSNSMVGFGLGNGGNGAAGGNNNFGGAGPSWAAAHLHHDSIGYISNEHGAAALGNMPVPVGMFMNMSNIPPRFYNQHQQAIMAVKQNRAIQQQTGNFSPGNSGPGVTGVGVGRSATPGGNKKTNKLGKSRVTGGGTGGAPLTQGSSVCNAAPYSQHPMPLSLQMTQPSGFALSQQPELSQDFGQISQMDGLLSQDVAFNASGERSLNQFSQPY

The molecules below were run against T1, Drosophila Upstream of N-Ras (Unr), full-length wild type, V5-tagged (Drosophila) (assay: affinity purification with mass spectrometry; anti-V5 immunoprecipitation (protein A/G magnetic beads) of V5-tagged Unr from lysates of transfected SL2 cells after depletion of endogenous Unr; cells UV cross-linked; no RNase treatment; TMT quantitative MS; n = 3; empty vector as control).

Question: How did the binding turn out when Ago1 (from UniProt Q32KD4 1-984) was run?
Answer: Its binding is “binds”.

Question: With Ref1 (from UniProt Q9V3E7) as the molecule, how does the binding read?
Answer: The binding was “binds”.

Question: How did the binding turn out when Imp was run?
Answer: Its binding is “binds”.

Question: Rump was tested. Which binding did it give?
Answer: The binding was “binds”.

Question: Rm62 (from UniProt P19109 1-719) was tested. Which binding did it give?
Answer: The binding was “binds”.

Question: How did the binding turn out when B1 was run?
Answer: The binding was “binds”.

Question: How did the binding turn out when B2 was run?
Answer: Its binding is “binds”.

Question: How did the binding turn out when B3 was run?
Answer: The binding was “binds”.

Question: B4 was tested. Which binding did it give?
Answer: Its binding is “binds”.
